# Source: article PMC6316800
# By UniProt entry, the sequences of proteins in these tests, tags left out.
# UniProt Q14980: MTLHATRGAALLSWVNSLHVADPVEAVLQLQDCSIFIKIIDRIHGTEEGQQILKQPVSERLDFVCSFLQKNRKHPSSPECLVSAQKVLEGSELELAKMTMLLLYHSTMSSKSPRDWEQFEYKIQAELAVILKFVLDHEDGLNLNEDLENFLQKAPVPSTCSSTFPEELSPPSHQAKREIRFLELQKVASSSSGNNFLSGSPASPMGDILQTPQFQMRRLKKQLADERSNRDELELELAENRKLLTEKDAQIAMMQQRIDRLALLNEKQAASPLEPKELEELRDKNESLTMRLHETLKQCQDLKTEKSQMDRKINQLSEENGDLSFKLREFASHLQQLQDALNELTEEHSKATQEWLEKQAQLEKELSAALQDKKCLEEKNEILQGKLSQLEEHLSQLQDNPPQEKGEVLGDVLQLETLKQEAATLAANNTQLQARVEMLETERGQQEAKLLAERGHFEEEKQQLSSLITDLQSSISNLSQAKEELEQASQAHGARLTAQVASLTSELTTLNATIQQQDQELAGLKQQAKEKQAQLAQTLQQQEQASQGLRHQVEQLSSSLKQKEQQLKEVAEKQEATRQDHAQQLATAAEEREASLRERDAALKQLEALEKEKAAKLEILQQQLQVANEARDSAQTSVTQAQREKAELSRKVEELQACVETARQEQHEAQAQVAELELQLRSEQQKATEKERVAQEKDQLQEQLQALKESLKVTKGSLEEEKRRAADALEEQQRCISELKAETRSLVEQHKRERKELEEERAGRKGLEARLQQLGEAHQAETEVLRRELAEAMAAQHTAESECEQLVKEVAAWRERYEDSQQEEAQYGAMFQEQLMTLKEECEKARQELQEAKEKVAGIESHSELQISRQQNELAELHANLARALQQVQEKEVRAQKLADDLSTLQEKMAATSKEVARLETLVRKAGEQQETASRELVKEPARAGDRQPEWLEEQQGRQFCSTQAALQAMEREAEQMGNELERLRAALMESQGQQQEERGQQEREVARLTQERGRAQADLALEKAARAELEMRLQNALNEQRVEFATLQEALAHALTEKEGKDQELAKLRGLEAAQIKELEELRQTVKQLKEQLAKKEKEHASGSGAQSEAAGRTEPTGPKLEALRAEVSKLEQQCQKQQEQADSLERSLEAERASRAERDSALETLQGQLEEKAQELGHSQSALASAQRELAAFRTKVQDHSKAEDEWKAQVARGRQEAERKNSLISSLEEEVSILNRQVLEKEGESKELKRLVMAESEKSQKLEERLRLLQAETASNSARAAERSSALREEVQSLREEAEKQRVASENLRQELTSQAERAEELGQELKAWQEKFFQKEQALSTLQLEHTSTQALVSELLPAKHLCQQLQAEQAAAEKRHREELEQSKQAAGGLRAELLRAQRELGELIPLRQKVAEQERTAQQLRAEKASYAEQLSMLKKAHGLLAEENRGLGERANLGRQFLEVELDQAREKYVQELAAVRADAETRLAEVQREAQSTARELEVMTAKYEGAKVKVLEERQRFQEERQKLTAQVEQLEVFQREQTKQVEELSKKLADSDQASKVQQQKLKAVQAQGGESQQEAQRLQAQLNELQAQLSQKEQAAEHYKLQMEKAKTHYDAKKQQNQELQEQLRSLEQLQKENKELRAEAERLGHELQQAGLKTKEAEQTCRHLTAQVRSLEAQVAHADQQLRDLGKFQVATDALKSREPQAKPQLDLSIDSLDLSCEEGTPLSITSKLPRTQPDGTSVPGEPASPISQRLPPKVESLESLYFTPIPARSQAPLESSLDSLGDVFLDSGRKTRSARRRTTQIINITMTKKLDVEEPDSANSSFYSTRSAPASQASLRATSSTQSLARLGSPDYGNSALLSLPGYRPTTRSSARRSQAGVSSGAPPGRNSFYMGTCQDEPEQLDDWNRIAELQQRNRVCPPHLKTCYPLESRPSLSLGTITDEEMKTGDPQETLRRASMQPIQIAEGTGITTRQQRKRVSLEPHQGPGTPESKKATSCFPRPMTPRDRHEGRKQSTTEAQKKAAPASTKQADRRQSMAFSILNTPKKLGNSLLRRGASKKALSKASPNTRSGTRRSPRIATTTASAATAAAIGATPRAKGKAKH
# UniProt P03496: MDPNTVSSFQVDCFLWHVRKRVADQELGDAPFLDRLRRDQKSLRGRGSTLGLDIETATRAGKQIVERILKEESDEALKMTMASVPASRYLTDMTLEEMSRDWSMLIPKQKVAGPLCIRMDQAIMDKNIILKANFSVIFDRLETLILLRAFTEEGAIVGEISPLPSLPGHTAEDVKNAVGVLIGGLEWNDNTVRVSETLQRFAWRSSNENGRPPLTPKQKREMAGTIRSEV
# These are yes or no findings as the source states them, for the method shown. In cells and extracts the contact can be indirect. Some entries that bind do so weakly or less than the wild type.
# Target: Nuclear mitotic apparatus protein 1 (human (endogenous in A549)) (UniProt Q14980)
# Test: co-IP
substance,measurement,value
"Influenza A virus non-structural protein 1 (NS1), strain A/Puerto Rico/8/1934(H1N1) (from UniProt P03496 1-230)",binding,binds
